Test results taken from PubChem BioAssay AID1671190 (National Center for Advancing Translational Sciences (NCATS), 2021).
Values joined by “and” are separate entries in the source; they are usually repeats but may differ in a detail not shown here. Equal entries are not always repeated. The campaign covered roughly 580,000 compounds. About 6,100 (1.1%) were called active. The inconclusive results got no clear call from the source; some entries with a clear call stand among them for comparison. The call rests on the fitted dose curve; in most records, active means well fitted inhibition curve with a large enough effect; inconclusive means small, poorly fitted or top-dose-only effect, or another doubt; inactive means no such curve, though single readings can be large or run the other way. Potencies of inconclusive entries are doubtful fits and often do not repeat.

The chains behind the UniProt entries cited, without tags or fusion partners. Where a name states a change or a piece, a line headed by the entry shows the natural chain unless it says otherwise.
UniProt P18054: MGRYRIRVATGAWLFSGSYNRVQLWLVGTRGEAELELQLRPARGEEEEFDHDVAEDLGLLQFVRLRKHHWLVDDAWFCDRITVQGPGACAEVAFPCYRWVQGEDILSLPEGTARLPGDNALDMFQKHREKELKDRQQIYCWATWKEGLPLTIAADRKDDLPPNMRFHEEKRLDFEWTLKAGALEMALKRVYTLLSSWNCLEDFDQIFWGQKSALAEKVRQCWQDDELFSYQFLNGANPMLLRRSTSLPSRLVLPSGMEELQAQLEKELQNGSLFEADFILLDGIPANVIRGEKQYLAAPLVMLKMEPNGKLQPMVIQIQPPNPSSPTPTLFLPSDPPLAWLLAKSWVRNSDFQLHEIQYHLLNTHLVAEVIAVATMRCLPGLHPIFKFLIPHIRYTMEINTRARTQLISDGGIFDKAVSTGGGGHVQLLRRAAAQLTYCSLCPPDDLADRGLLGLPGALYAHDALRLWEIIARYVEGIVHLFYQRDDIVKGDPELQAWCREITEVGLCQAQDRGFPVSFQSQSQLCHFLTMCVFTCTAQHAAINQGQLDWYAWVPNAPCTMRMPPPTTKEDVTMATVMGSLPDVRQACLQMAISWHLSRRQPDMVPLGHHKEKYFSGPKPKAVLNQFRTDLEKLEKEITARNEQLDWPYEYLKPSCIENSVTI

Target: Polyunsaturated fatty acid lipoxygenase ALOX12 (Homo sapiens) (UniProt P18054)
Experiment: Primary qHTS assay for inhibitors of human arachidonate 12S-lipoxygenase (ALOX12): Round 2
Conditions: purified 12hLO, xylenol orange hydroperoxide absorbance; activity change, negative = inhibition: at 108 µM (top of the series) unless noted
Outline: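 Purified human 12hLO (150 nM final) in 25 mM Hepes, 0.01% Triton X-100, pH 7.0 was preincubated 15 min at room temperature with compound. Then 40 uM arachidonic acid was added, 30 min. Hydroperoxide was read by Fe-XO absorbance ratio 573/405 nm.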
On the % scale 0 is the no-effect control and ±100 the full control effect; potency means the concentration at half of the fitted maximal effect.

SMILES	Potency	activity change, negative = inhibition
COc1cccc2c1CCCC2CCCN1CCN(C2CCCCC2)CC1 (stereo not given)	inconclusive: 96.8 nM [inhibitor, full curve] and inconclusive: 35.5 µM [inhibitor, single point]	
CCc1[nH]c2ccc(CNC(=O)c3scc4c3OCCO4)cc2c1C	inconclusive: 10 µM [inhibitor, partial curve, poor fit]	
COc1cccc(C(c2nnnn2Cc2ccccc2)N2CCN(C3CCCC3)CC2)c1OC (stereo not given)	inconclusive: 39.8 µM [inhibitor, partial curve, poor fit]	
Clc1ccc(-c2cccc3nccn23)cc1	inconclusive: 50.1 µM [inhibitor, partial curve, poor fit]	
CCOC(=O)c1c(C)[nH]c(C)c1C=O	inactive	
Cc1cc(OCC(=O)NCC2(N3CCOCC3)CCCCC2)ccc1Cl	inconclusive: 8.91 µM [inhibitor, partial curve, poor fit]	
CC(C)(C)OC(=O)CNC(=O)c1[nH]cnc1C(=O)Nc1ccc(Cl)cc1	inconclusive: 31.6 µM [inhibitor, partial curve, poor fit]	
O=C(NNC(=O)c1ccccc1Cl)c1cccnc1	inconclusive: 112 µM [inhibitor, single point]	
CCCOc1cccc(C(=O)Nc2scc(-c3ccc(F)cc3)c2C(=O)OC)c1	inactive	
COC1CCCCC1Nc1cc(C)cc(C)c1 (stereo not given)	inconclusive: 3.55 µM [inhibitor, full curve, poor fit]	
Cn1c(N)c(C(=O)CN2CCN(S(=O)(=O)c3ccccc3C#N)CC2)c(=O)n(C)c1=O	inconclusive: 100 µM [inhibitor, single point]	
O=c1c2ccccc2nc(/C=C/c2cc(Br)ccc2O)n1CCO	inconclusive: 100 µM [inhibitor, single point]	
Cc1csc(NC(=O)[C@@H]2C[C@H](c3ccc(F)cc3)N(Cc3ccccc3Cl)C2)n1	inconclusive: 50.1 µM [inhibitor, full curve]	
CC1(CCCCc2ccccc2)COc2ccc(C(=O)NC3CC3)cc2N1 (stereo not given)	inconclusive: 50.1 µM [inhibitor, partial curve, poor fit]	
COc1cccc(N(CC(=O)NCCSc2ccccn2)S(=O)(=O)c2ccccc2)c1	inactive	
O=C(CSc1nnc2ccccn12)Nc1ccc(S(=O)(=O)N2CCCC2)cc1	inactive	
Cc1ccc(NC(=O)COC(=O)c2cc3ccccc3[nH]2)cc1C	inconclusive: 44.7 µM [inhibitor, partial curve, poor fit]	
Cc1cc(C)n(S(=O)(=O)c2ccccc2)n1	inconclusive: 35.5 µM [inhibitor, partial curve, poor fit]	
CCOc1cc(/C=C2\NC(=O)NC2=O)cc(I)c1OCc1ccc(C(=O)O)cc1	inconclusive: 17.8 µM [inhibitor, full curve, poor fit]	
O=C(c1ccco1)N1CCCC(Cc2nc(C3CCOCC3)no2)C1 (stereo not given)	inactive	
C[C@H]1CN([C@@H](C)CO)C(=O)CCCn2nncc2CO[C@H]1CN(C)S(=O)(=O)c1ccc(Oc2ccccc2)nc1	inconclusive: 44.7 µM [inhibitor, partial curve, poor fit]	
O=C(CCS(=O)(=O)Cc1cccc(F)c1)Nc1ccc(F)cc1	inconclusive: 44.7 µM [inhibitor, single point]	
COc1ccc(S(=O)(=O)CCC(=O)N2CCN(c3ccc([N+](=O)[O-])cc3)CC2)cc1	inconclusive: 20 µM [inhibitor, full curve, poor fit]	
Cc1c(CC(=O)NCCc2ccccc2)c(=O)oc2cc(O)c(Cl)cc12	inactive	

SMILES	Potency	activity change, negative = inhibition
CN1c2cccnc2CN(Cc2ccc(OC(F)(F)F)cc2)CC[C@H]1CO	inactive	
O=C(COC(=O)/C=C/c1ccc(Cl)cc1Cl)Nc1cccc(S(=O)(=O)NC2=NCCC2)c1	inconclusive: 20 µM [inhibitor, partial curve, poor fit]	
Cc1ccsc1/C=N/NC(=O)C1CC1	inconclusive: 31.6 µM [inhibitor, single point]	
COc1ccccc1OC(=O)CCc1nc2ccccc2s1	inactive	
COc1ccc(N2CCN(C(=O)COC(=O)c3cccc(S(=O)(=O)Nc4cccc(C)c4)c3)CC2)cc1	inactive	
CCc1cccc(NC(=O)C(CC(C)C)NS(=O)(=O)c2ccc3c(c2)oc(=O)n3C)c1 (stereo not given)	inconclusive: 126 µM [inhibitor, partial curve, poor fit]	
Cc1ccc(NC(=O)Cn2nc3ccc(SC(C)C)nn3c2=O)c(Cl)c1	inactive	
Cc1ccccc1C(=O)Nc1ccc(N2CCCC2)cc1	inconclusive: 50.1 µM [inhibitor, partial curve, poor fit]	
C[C@@H]1CN(C(=O)Cn2c3c(c(=O)n2Cc2ccccc2)CCN(Cc2ccccc2)C3)C[C@H](C)O1	inactive	
Cc1ccc(/C=C2/NC(=O)N(c3ccccc3)C2=O)o1	inactive	
CC(C)CCN1CCC(N2CCN(C(=O)c3ccc(Cl)s3)CC2)C1=O (stereo not given)	inactive	
CCn1ncc(Cl)c1C(=O)Nc1cc([N+](=O)[O-])ccc1OC	inactive	
CC1CC(C)CN(C(=O)CCc2ccccc2)C1 (stereo not given)	inconclusive: 39.8 µM [inhibitor, single point]	
COc1cccc(OCCOc2ccc(/C=C3\C(=N)N4N=C(S(C)(=O)=O)SC4=NC3=O)cc2OC)c1	inconclusive: 50.1 µM [inhibitor, partial curve, poor fit]	
COc1ccc2c(c1)OC(=O)CC2c1ccccc1OC (stereo not given)	inconclusive: 56.2 µM [inhibitor, partial curve, poor fit]	
Nc1nc(N)c2ncc(C(=O)CCc3ccccc3)nc2n1	inconclusive: 44.7 µM [inhibitor, partial curve, poor fit]	
CC(C)NC(=O)c1cc(-c2ccc(Br)cc2)nc2ccccc12	inconclusive: 70.8 µM [inhibitor, partial curve, poor fit]	
CCCN(CCC)CCNC(=O)c1cc(-c2ccc(Br)s2)nc2ccccc12	inconclusive: 35.5 µM [inhibitor, partial curve, poor fit]	
O=[S+]([O-])(c1cccnc1)c1nnn2c1nc(NCc1ccc(F)cc1)c1ccccc12		inactive: 7.9% [at 6.33 µM]
COC1CN(C2CCN(C(=O)c3ccc(C)nc3)CC2)C12CCOCC2 (stereo not given)	inactive	
Cc1cccc(NC(=O)CSc2nnc([C@H](C)NC(=O)OC(C)(C)C)o2)c1C	inactive	
O=c1c(N2CCc3ccccc3C2)csc2ccc(Br)cc12	active: 39.8 µM	
CCCC[n+]1c2ccccc2cc2ccccc21	active: 8.91 µM	
Cc1ccc(CNCc2ccc(C)s2)cc1	inconclusive: 158 µM [inhibitor, partial curve, poor fit]	

SMILES	Potency	activity change, negative = inhibition
COc1cccc(/C=N/NC(=S)Nc2cccc(C(=O)O)c2)c1	inconclusive: 35.5 µM [inhibitor, partial curve, poor fit]	
CC(C)CCN(Cc1ccco1)C(=O)Cn1ncc2c([nH]c3ccccc32)c1=O	inconclusive: 100 µM [inhibitor, partial curve, poor fit]	
CCSCc1ccc(C(=O)C(C#N)C(=O)NC(C)C)cc1 (stereo not given)	inconclusive: 10 µM [inhibitor, full curve]	
CCOC(=O)NC(C(=O)OCC)(c1ccc(F)cc1)C(F)(F)F (stereo not given)	inconclusive: 0.199 µM [inhibitor, full curve, poor fit]	
OCCCNC(=S)Nc1ccccc1F	inactive	
COc1ccccc1Cc1nc2ccccc2nc1SCC(=O)N1CCC(C)CC1	inconclusive: 100 µM [inhibitor, partial curve, poor fit]	
Cc1ccc(-c2nc(SCc3ncc(-c4ccc(Cl)cc4)o3)n[nH]2)cc1	inconclusive: 35.5 µM [inhibitor, partial curve]	
COc1cc(OC)c(OC)cc1/C=N/NC(=S)NCC1CCCO1 (stereo not given)	inactive	
COc1ccc(Oc2nc(C)nc3c2oc2ccccc23)cc1	inconclusive: 89.1 µM [inhibitor, single point]	
CC1(C)Cc2nc(-c3ccccc3)nc(SCC(=O)N3CCOCC3)c2CO1	inconclusive: 2.82 µM [inhibitor, full curve, poor fit]	
CCc1ccccc1Oc1cnn(-c2ccc(C(F)(F)F)cn2)c(=O)c1Cl	inactive	
Cc1cccc(SC2CCN(Cc3nc(CC4CC4)no3)CC2)c1	inconclusive: 44.7 µM [inhibitor, partial curve, poor fit]	
CC(C)c1ccc(/C=C2\Oc3c(ccc(O)c3CN3CCN(C)CC3)C2=O)cc1	inconclusive: 50.1 µM [inhibitor, partial curve, poor fit]	
Cc1c(C(=O)N2CCC(C)CC2)c(S(=O)(=O)N2CCN(c3cccc(Cl)c3)CC2)c(C)n1C	inconclusive: 100 µM [inhibitor, partial curve, poor fit]	
CSc1ccc2[nH]c(=O)cc(C)c2c1	inactive	
O=C(NCCC(F)(F)F)C1Cc2c(-c3ccc(Cl)cc3)ccnc2O1 (stereo not given)	inactive	
COC(=O)c1sc(N2C(=O)C(O)=C(C(=O)c3ccc(C)o3)C2c2ccc(F)cc2)nc1C (stereo not given)	inactive	
Cc1nc(-c2ccccc2)sc1C(=O)Nc1ccncc1	inactive	
CCOc1ccc(NC(=O)Cn2c(Nc3cc(C)cc(C)c3)nc(C)cc2=O)cc1	active: 35.5 µM	
Clc1ccccc1CN1CCN(CCCc2ccccc2)CC1	inactive	
COc1cccc(N2C(=O)CCC2(C)C(=O)NC2CCCC2)c1 (stereo not given)	inactive	
Cn1cccc1-c1nc2ccc([N+](=O)[O-])cc2[nH]1	inconclusive: 39.8 µM [inhibitor, partial curve, poor fit]	
